Experimental data taken from PubChem BioAssay AID540256 (National Center for Advancing Translational Sciences (NCATS), 2011).
The whole screen tested about 300,000 compounds, of which about 3,700 (1.2%) were called active. Inconclusive results, whose numbers are uncertain, are shown with a selection of clear calls. The call rests on the fitted dose curve; tested in HEK293 cells. Where the call is inconclusive, the potency comes from a doubtful curve fit.

Assay: qHTS for Inhibitors of binding or entry into cells for Lassa Virus; further: nearly all actives have a fitted effect of over 50% in size
Details: Lassa virus pseudotype entry inhibition, cell reporter; series mostly up to 37.9 µM
Potency means the concentration at half of the fitted maximal effect.

**Q.** For `Cc1noc(/C=C/Nc2ccc(F)cc2F)c1[N+](=O)[O-]`, which Potency is on record?
**A.** inconclusive: 31.6 µM [inhibitor, single point]

**Q.** For `O=S(=O)(Nn1cnnc1)c1ccccc1`, which Potency is on record?
**A.** inactive

**Q.** Which Potency does the source give for `N#CC1(C#N)C(C(=O)C23CC4CC(CC(C4)C2)C3)C12CCOCC2` (configuration not stated) here?
**A.** inconclusive: 31.6 µM [activator, single point]

**Q.** With `c1cc2c3c(cccc3c1)NN=N2` as the compound, how does the Potency read?
**A.** inconclusive: 1.26 µM [inhibitor, single point]

**Q.** With `CCc1ccc(NC(=O)c2cc(C)on2)cc1` as the compound, how does the Potency read?
**A.** inactive

**Q.** With `C=C(C(=O)c1ccccc1)C(NC(C)(C)C)c1ccccc1` (configuration not stated) as the compound, how does the Potency read?
**A.** inconclusive: 7.94 µM [inhibitor, partial curve, poor fit]

**Q.** Which Potency does the source give for `O=C(Cc1n[nH]c(=O)c2ccccc12)OCC(=O)c1ccc(F)cc1` here?
**A.** inactive

**Q.** For `CCC(=O)NC(c1ccc(OC)c(OC)c1)c1cc(Cl)c2cccnc2c1O` (configuration not stated), which Potency is on record?
**A.** inconclusive: 5.01 µM [inhibitor, full curve, poor fit]

**Q.** Which Potency does the source give for `CCN(CC)C(=O)c1ccc(NC(=O)c2cccc(S(=O)(=O)N3CCN(C)CC3)c2)cc1` here?
**A.** inactive

**Q.** With `COc1ccc(-c2csc(Nc3ncccc3C)n2)cc1` as the compound, how does the Potency read?
**A.** inconclusive: 35.5 µM [inhibitor, single point]

**Q.** Which Potency does the source give for `CCc1ccccc1NC(=O)C1CCN(C2=NS(=O)(=O)C(c3ccc(C)c(C)c3)=C2C)CC1` here?
**A.** inactive

**Q.** Which Potency does the source give for `CCCCCCN1C[C@H](n2cc(C3CC3)nn2)[C@@H](O)C[C@H]1c1ccc(Cl)cc1` here?
**A.** active: 15.8 µM

**Q.** For `Cc1nc2ccccc2n1CCCOc1ccccc1`, which Potency is on record?
**A.** inconclusive: 35.5 µM [inhibitor, single point]

**Q.** For `CCCNC(=O)CCC(=O)N1Cc2ccccc2Oc2ncccc21`, which Potency is on record?
**A.** inconclusive: 2.82 µM [activator, partial curve, poor fit]

**Q.** Which Potency does the source give for `Cc1cccc(NC(=O)C(=O)NCc2ccccn2)c1` here?
**A.** inconclusive: 29.1 µM [activator, single point]

**Q.** Which Potency does the source give for `COc1ccc(-n2c(SCCC#N)nnc2-c2cc(Cl)ccc2OC)cc1Cl` here?
**A.** inconclusive: 29.1 µM [inhibitor, single point]

**Q.** With `O=C(Nc1ccccc1O)c1ccc(C(=O)c2ccccc2)o1` as the compound, how does the Potency read?
**A.** inconclusive: 35.5 µM [inhibitor, single point]

**Q.** With `CCCCOc1ccc(C(=O)Nc2cc(C)c(OCC(=O)N3CCOCC3)c(C)c2)cc1` as the compound, how does the Potency read?
**A.** inactive

**Q.** With `COc1ccccc1C(=O)Nc1nnc(SCc2cc(=O)n3ccc(C)cc3n2)s1` as the compound, how does the Potency read?
**A.** inactive

**Q.** Which Potency does the source give for `Cn1c(NC(=O)c2cccs2)c(-c2cccs2)c(=O)c2ccccc21` here?
**A.** inconclusive: 2.59 µM [inhibitor, partial curve]

**Q.** For `O=C(NCc1ccco1)c1cc(Cl)nc(Cl)c1`, which Potency is on record?
**A.** inconclusive: 35.5 µM [inhibitor, partial curve, poor fit]

**Q.** For `COc1ccc2nc(NC(=O)C3CCN(C(=O)c4ccc(F)cc4)CC3)sc2c1`, which Potency is on record?
**A.** inconclusive: 0.891 µM [activator, partial curve, poor fit]

**Q.** Which Potency does the source give for `COCCNC(=O)c1c(N)n(-c2cccc(C)c2)c2nc3ccccc3nc12` here?
**A.** inactive

**Q.** With `O=C(NCCCn1ccnc1)c1nn2c(C(F)(F)F)cc(-c3ccc(Br)cc3)nc2c1Cl` as the compound, how does the Potency read?
**A.** inactive

**Q.** For `CCC(CC)c1nnc(NC(=O)c2ccc(N3CCCCC3)c([N+](=O)[O-])c2)s1`, which Potency is on record?
**A.** inconclusive: 4.61 µM [inhibitor, partial curve, poor fit]

**Q.** With `COc1cccc(C(=O)NCC(=O)N2CCC(C)CC2)c1` as the compound, how does the Potency read?
**A.** inconclusive: 8.91 µM [activator, partial curve, poor fit]

**Q.** Which Potency does the source give for `O=C(CSc1nc(O)c(C(c2ccccc2)c2ccccc2)c(=O)[nH]1)N1CCOCC1` here?
**A.** inactive

**Q.** For `COc1ccc(NC(=S)Nc2ccc3nsnc3c2)cc1`, which Potency is on record?
**A.** inactive

**Q.** For `Cc1cc(C)c(-c2cc(C)nc3ncnn23)c(C)c1`, which Potency is on record?
**A.** inconclusive: 2.82 µM [activator, partial curve, poor fit]

**Q.** Which Potency does the source give for `C=CCN1CCN(C(=O)CCCc2ccccc2)CC1` here?
**A.** inconclusive: 7.94 µM [inhibitor, partial curve, poor fit]

**Q.** Which Potency does the source give for `O=C(Cn1cc(C(F)(F)F)ccc1=O)Nc1cc(S(=O)(=O)N2CCOCC2)ccc1Cl` here?
**A.** inactive

**Q.** For `CON(c1nc(Cl)nc(N(C)C)n1)S(=O)(=O)c1ccccc1Cl`, which Potency is on record?
**A.** active: 12.6 µM

**Q.** With `COC(=O)c1ccccc1SC1CC(=O)N(c2cccc(C)c2)C1=O` (configuration not stated) as the compound, how does the Potency read?
**A.** inconclusive: 31.6 µM [activator, single point]

**Q.** Which Potency does the source give for `O=C(CSc1ncnc2ccccc12)c1ccc2c(c1)OCCO2` here?
**A.** inactive

**Q.** With `Cc1ccc(-c2noc(C3CCCN(C(=O)c4ccccc4Br)C3)n2)o1` (configuration not stated) as the compound, how does the Potency read?
**A.** inconclusive: 35.5 µM [activator, single point]

**Q.** For `CCN(Cc1nc(-c2ccc(C)cc2)no1)C(=O)c1ccco1`, which Potency is on record?
**A.** inconclusive: 25.1 µM [activator, single point]

**Q.** Which Potency does the source give for `CCC(CC)NC(=O)Cc1ccccc1OC` here?
**A.** inactive

**Q.** For `CCN1CNC(=S)N(c2ccccc2OC)C1`, which Potency is on record?
**A.** inconclusive: 0.199 µM [activator, full curve, poor fit]

**Q.** With `CCc1ccc(N2CC(C(=O)N/N=C/c3cc([N+](=O)[O-])ccc3O)CC2=O)cc1` (configuration not stated) as the compound, how does the Potency read?
**A.** active: 7.08 µM

**Q.** Which Potency does the source give for `COc1ccc(/C=N/c2nc3ccccc3n2CCN2CCCCC2)cc1OC` here?
**A.** inconclusive: 6.51 µM [activator, single point]

**Q.** Which Potency does the source give for `C=CCNC(=O)NC(=O)Cn1c(=O)c2c(ncn2CC)n(Cc2ccccc2)c1=O` here?
**A.** inactive

**Q.** Which Potency does the source give for `COc1ccc2oc(=O)cc(-c3cc4cccc(OC)c4o3)c2c1` here?
**A.** inactive

**Q.** For `Cc1ccccc1NN1C(=O)C=CC1=O`, which Potency is on record?
**A.** inactive

**Q.** For `O=[N+]([O-])c1ccc(CN2CC(N3CCN(CC4CC4)CC3)CS2(=O)=O)cc1` (configuration not stated), which Potency is on record?
**A.** inconclusive: 3.53 µM [activator, full curve, poor fit]

**Q.** Which Potency does the source give for `COc1ccc(/C=N/OC(=O)Nc2ccc(Cl)cc2)c(OC)c1` here?
**A.** inactive

**Q.** Which Potency does the source give for `O=C(c1ccco1)N1CCN(C(=O)c2ccccc2OCc2ccccc2)CC1` here?
**A.** inconclusive: 4.47 µM [inhibitor, partial curve, poor fit]

**Q.** For `COc1ccc(N2C(=O)C3CCCN3C2c2ccc(C)o2)cc1Cl` (configuration not stated), which Potency is on record?
**A.** inconclusive: 23.1 µM [activator, single point]
